Reference: article PMC3281842, “Crystal Structure of TDRD3 and Methyl-Arginine Binding Characterization of TDRD3, SMN and SPF30” (PLoS ONE, 2012)
These are yes or no findings as the source states them, for the method shown. For part of these data: Tags and fused reporters may be left off the sequences shown.

Tests used:
Experiment in all cases: fluorescence polarisation; fluorescein-labeled peptides; 20 mM Tris pH 7.5, 50 mM NaCl, 1 mM DTT, 0.01% Triton X-100; 25°C; one-site binding model; Kd the average of three independent measurements; both purified
H3R2me1 = biological target: T1, H3R2me1
T1 sequence (peptide, monomethylarginine at R2; fluorescein label (position not stated)): ARTKQTARKSY

H3R2me2a = biological target: T2, H3R2me2a
T2 sequence (peptide, asymmetric dimethylarginine at R2; fluorescein label (position not stated)): ARTKQTARKSY

H3R2me2s = biological target: T3, H3R2me2s
T3 sequence (peptide, symmetric dimethylarginine at R2; fluorescein label (position not stated)): ARTKQTARKSY

Histone H3K4me1 = biological target: T4, Histone H3K4me1
T4 sequence (peptide, monomethyllysine at K4; fluorescein label (position not stated)): ARTKQTARKST

Histone H3K4me2 = biological target: T5, Histone H3K4me2
T5 sequence (peptide, dimethyllysine at K4; fluorescein label (position not stated)): ARTKQTARKST

Histone H3K4me3 = biological target: T6, Histone H3K4me3
T6 sequence (peptide, trimethyllysine at K4; fluorescein label (position not stated)): ARTKQTARKST

Histone H3K9me1 = biological target: T7, Histone H3K9me1
T7 sequence (peptide, monomethyllysine at K9; fluorescein label (position not stated)): ARTKQTARKSTGGKA

Histone H3K9me2 = biological target: T8, Histone H3K9me2
T8 sequence (peptide, dimethyllysine at K9; fluorescein label (position not stated)): ARTKQTARKSTGGKA

Histone H3K9me3 = biological target: T9, Histone H3K9me3
T9 sequence (peptide, trimethyllysine at K9; fluorescein label (position not stated)): ARTKQTARKSTGGKA

binding (H3R2me1): no binding
binding (H3R2me2a): no binding
binding (H3R2me2s): no binding
binding (Histone H3K4me1): no binding
binding (Histone H3K4me2): no binding
binding (Histone H3K4me3): no binding
binding (Histone H3K9me1): no binding
binding (Histone H3K9me2): no binding
binding (Histone H3K9me3): no binding
B1: SPF30 (aa 65–150) (domain or fragment, UniProt O75940 65-150)
chain: ASTQPTHSWKVGDKCMAVWSEDGQCYEAEIEEIDEENGTAAITFAGYGNAEVTPLLNLKPVEEGRKAKEDSGNKPMSKKEMIAQQR
